Test results reported in PMC8985094, “Chemical constituents from Carica papaya Linn. leaves as potential cytotoxic, EGFR^wt and aromatase (CYP19A) inhibitors; a study supported by molecular docking” (RSC Advances, 2022).

Test system: MCF-7 cell line
Assay: MTT cytotoxicity assay in breast cancer cell line (MCF-7)
Assay type: cell-based
Conditions: Homo sapiens, MCF7, 24 h treatment, mean ± SD, read-out: IC50 on MCF-7 cell lines
Method: The cytotoxic effect of the isolated compounds from C. papaya on MCF-7 cells line was evaluated using MTT assay which measures metabolic activity as an indicator of cellular viability and proliferation.
Briefly, breast cancer cell line (MCF-7) were obtained from American Type Culture Collection and cultured in DMEM medium (Invitrogen/Life Technologies) supplemented with 10% FBS (Hyclone, USA). Insulin (10 μg mL^−1, Sigma-Aldrich, USA) and 1% penicillin–streptomycin. the cells were seeded in 96-well plates (VWR, Switzerland) at cell density 1.2–1.8 × 10^4 cells per well. […] After treatments, the medium was removed from all wells of the plate and 20 μL of the MTT reagent (Sigma-Aldrich, USA) (0.5 mg mL^−1) in PBS was added and incubated for 3.5 h at 37 °C. The solution was removed and 50 μL of DMSO was added, incubated for 5 min and the absorbance was measured at 570 nm.
Results are expressed as mean ± standard deviation (SD) based on triplicate experiments. The IC50 values of the tested compounds were determined using curve fitting in the R programming language and associated packages including Magrittr,[45] drc[46] and ggplot2.[47] Graphs and figures were generated using R console and PyMOL (PyMOL Molecular Graphics System, Schrödinger).

CN[C@@H]1C[C@H]2O[C@@](C)([C@@H]1OC)n1c3ccccc3c3c4c(c5c6ccccc6n2c5c31)C(=O)NC4 [Staurosporine, reference compound]
IC50: 10.2 ± 0.58 µM
